# Source: PubChem BioAssay AID493246 (Drosophila RNAi Screening Center, 2011)
# Test: 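Identify essential fly genes by loss of cell viability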 (primary screen)
# Cell system: Drosophila Kc and S2R+ cells
# Reagent: long dsRNA against Drosophila genes
# Detection: 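Raw, unnormalised count of remaining cells in each well; per-plate z-scores of cell number underlie the calls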
# Direction: Kc cell number and S2R+ cell number: higher = more cells remaining
# Hit rule: 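Counted as a hit if cell number falls by a z-score of at least 3 within its plate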
# The deposit covers about 21,000 reagents; below is an unselected part of those that have a named target and a result. Of all reagents, 429 (2%) were called active. 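Values are raw and not normalised between plates; calls rest on per-plate z-scores that were not deposited.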 Not stated in the record: the amount of reagent, the time to read-out.
target,amplicon,"Kc cell number, rep 1","Kc cell number, rep 2","S2R+ cell number, rep 1","S2R+ cell number, rep 2",activity call
vari (GeneID 35343),DRSC03202,1.45e6,1.56e6,1.35e6,3.28e5,inactive
Tdg (GeneID 43796),DRSC17119,1.13e6,1.33e6,1.07e6,1.07e6,inactive
Tdg (GeneID 43796),DRSC17169,1.40e6,1.44e6,1.00e6,1.10e6,inactive
CG3726 (GeneID 31525),DRSC18320,1.69e6,1.76e6,8.96e5,1.02e6,inactive
kto (GeneID 44830),DRSC10983,1.44e6,1.50e6,1.28e6,1.28e6,inactive
CG10324 (GeneID 42028),DRSC14230,1.53e6,1.54e6,1.08e6,1.17e6,inactive
Mid1 (GeneID 37953),DRSC04230,1.20e6,1.25e6,9.88e5,1.12e6,inactive
Mid1 (GeneID 37953),DRSC04231,1.70e6,1.75e6,1.39e6,1.44e6,inactive
Mid1 (GeneID 37953),DRSC04308,1.72e6,1.75e6,1.31e6,1.41e6,inactive
CG32281 (GeneID 317953),DRSC08236,1.32e6,1.46e6,1.14e6,9.65e5,inactive
CG11106 (GeneID 32062),DRSC19381,1.69e6,1.59e6,1.10e6,1.24e6,inactive
CG40006 (GeneID 3355123),DRSC03787,5.57e5,,9.04e5,,inactive
CG40006 (GeneID 3355123),DRSC03809,6.35e5,,8.39e5,,inactive
CG40006 (GeneID 3355123),DRSC03814,5.04e5,,8.98e5,,inactive
CG40006 (GeneID 3355123),DRSC03817,5.59e5,,8.12e5,,inactive
p38a (GeneID 42866),DRSC16743,1.45e6,1.49e6,1.03e6,1.06e6,inactive
Kebab (GeneID 48440),DRSC00827,1.44e6,1.40e6,8.23e5,9.23e5,inactive
Sgs7 (GeneID 47198),DRSC11281,1.60e6,1.36e6,1.42e6,1.54e6,inactive
CG8117 (GeneID 32499),DRSC20082,1.70e6,1.64e6,9.98e5,1.06e6,inactive
CG4842 (GeneID 39817),DRSC10453,1.63e6,1.79e6,1.22e6,1.40e6,inactive
CG15711 (GeneID 36834),DRSC06582,1.54e6,1.62e6,1.22e6,1.42e6,inactive
Cht10 (GeneID 3355116),DRSC03766,1.53e6,1.63e6,1.32e6,3.37e5,inactive
Cht10 (GeneID 3355116),DRSC03767,1.31e6,1.36e6,1.06e6,1.11e6,inactive
Cht10 (GeneID 3355116),DRSC03768,1.43e6,1.56e6,1.31e6,3.41e5,inactive
CG14418 (GeneID 31275),DRSC18637,1.67e6,1.70e6,8.90e5,1.06e6,inactive
Cad88C (GeneID 41774),DRSC15486,1.33e6,1.35e6,1.11e6,1.22e6,inactive
Jarid2 (GeneID 39103),DRSC10372,1.29e6,1.37e6,1.21e6,1.18e6,inactive
SF2 (GeneID 53443),DRSC16845,1.36e6,1.35e6,9.24e5,1.04e6,inactive
CG31391 (GeneID 41280),DRSC16047,1.41e6,1.50e6,1.18e6,1.27e6,inactive
ScpX (GeneID 44183),DRSC03430,1.49e6,1.56e6,1.33e6,1.35e6,inactive
B9d1 (GeneID 41888),DRSC14993,1.52e6,1.52e6,1.15e6,1.33e6,inactive
CG13794 (GeneID 34048),DRSC02298,1.62e6,1.64e6,1.18e6,1.30e6,inactive
TTLL12 (GeneID 35732),DRSC06555,1.53e6,1.67e6,1.25e6,1.33e6,inactive
PK1-R (GeneID 41713),DRSC16577,1.25e6,1.32e6,1.16e6,1.28e6,inactive
RpS30 (GeneID 42470),DRSC15119,7.96e5,8.04e5,6.31e5,7.17e5,inactive
sni (GeneID 31761),DRSC17770,5.48e5,,8.46e5,,inactive
Cdc45 (GeneID 31052),DRSC17747,5.73e5,,8.37e5,,inactive
Cdc45 (GeneID 31052),DRSC18164,1.57e6,1.71e6,1.00e6,1.16e6,inactive
RnrL (GeneID 34392),DRSC03413,1.18e6,1.20e6,8.09e5,9.86e5,inactive
Rexo5 (GeneID 38740),DRSC10981,1.38e6,1.34e6,1.16e6,1.13e6,inactive
Pde6 (GeneID 41760),DRSC16401,1.63e6,1.69e6,1.21e6,1.33e6,inactive
Pde6 (GeneID 41760),DRSC16402,1.37e6,1.34e6,1.11e6,1.24e6,inactive
Pde6 (GeneID 41760),DRSC16403,1.38e6,1.39e6,1.12e6,1.25e6,inactive
Tps1 (GeneID 33642),DRSC00269,1.38e6,1.34e6,9.81e5,1.01e6,inactive
GCC88 (GeneID 41350),DRSC14264,1.51e6,1.57e6,1.23e6,1.35e6,inactive
CG14891 (GeneID 42013),DRSC15013,1.51e6,1.67e6,1.13e6,1.22e6,inactive
Asx (GeneID 36612),DRSC05924,1.36e6,1.46e6,1.04e6,1.11e6,inactive
Pih1D1 (GeneID 34685),DRSC02897,1.54e6,1.56e6,1.15e6,1.25e6,inactive
Rab7 (GeneID 42841),DRSC16810,1.51e6,1.50e6,1.15e6,1.23e6,inactive
GlyRS (GeneID 39644),DRSC10711,1.46e6,1.48e6,1.21e6,1.32e6,inactive
CG7806 (GeneID 34140),DRSC03071,1.38e6,1.39e6,7.69e5,9.58e5,inactive
CG14644 (GeneID 40536),DRSC12230,1.33e6,1.58e6,1.23e6,1.33e6,inactive
Fie (GeneID 38452),DRSC08158,1.29e6,1.44e6,1.17e6,1.13e6,inactive
St2 (GeneID 41098),DRSC15142,1.81e6,2.05e6,1.35e6,1.53e6,inactive
ATP7 (GeneID 32142),DRSC19819,1.59e6,1.53e6,1.03e6,1.15e6,inactive
CG14785 (GeneID 31094),DRSC18604,4.44e5,,8.42e5,,inactive
E2f2 (GeneID 35381),DRSC03320,1.34e6,1.43e6,1.04e6,1.11e6,inactive
Ype (GeneID 32295),DRSC20301,6.28e5,,9.81e5,,inactive
mRpL9 (GeneID 41859),DRSC15678,9.98e5,1.11e6,1.04e6,1.13e6,inactive

Entries above whose gene name starts with R or r (4):
target,amplicon,"Kc cell number, rep 1","Kc cell number, rep 2","S2R+ cell number, rep 1","S2R+ cell number, rep 2",activity call
RpS30 (GeneID 42470),DRSC15119,7.96e5,8.04e5,6.31e5,7.17e5,inactive
RnrL (GeneID 34392),DRSC03413,1.18e6,1.20e6,8.09e5,9.86e5,inactive
Rexo5 (GeneID 38740),DRSC10981,1.38e6,1.34e6,1.16e6,1.13e6,inactive
Rab7 (GeneID 42841),DRSC16810,1.51e6,1.50e6,1.15e6,1.23e6,inactive
